Consider 17 targets from the supplement of paper PMC6411743.

Sequences of proteins named here, by UniProt entry; tags and fusion partners are left off. A change or cut given only in a name is not applied to a line headed by its entry.
UniProt Q13625: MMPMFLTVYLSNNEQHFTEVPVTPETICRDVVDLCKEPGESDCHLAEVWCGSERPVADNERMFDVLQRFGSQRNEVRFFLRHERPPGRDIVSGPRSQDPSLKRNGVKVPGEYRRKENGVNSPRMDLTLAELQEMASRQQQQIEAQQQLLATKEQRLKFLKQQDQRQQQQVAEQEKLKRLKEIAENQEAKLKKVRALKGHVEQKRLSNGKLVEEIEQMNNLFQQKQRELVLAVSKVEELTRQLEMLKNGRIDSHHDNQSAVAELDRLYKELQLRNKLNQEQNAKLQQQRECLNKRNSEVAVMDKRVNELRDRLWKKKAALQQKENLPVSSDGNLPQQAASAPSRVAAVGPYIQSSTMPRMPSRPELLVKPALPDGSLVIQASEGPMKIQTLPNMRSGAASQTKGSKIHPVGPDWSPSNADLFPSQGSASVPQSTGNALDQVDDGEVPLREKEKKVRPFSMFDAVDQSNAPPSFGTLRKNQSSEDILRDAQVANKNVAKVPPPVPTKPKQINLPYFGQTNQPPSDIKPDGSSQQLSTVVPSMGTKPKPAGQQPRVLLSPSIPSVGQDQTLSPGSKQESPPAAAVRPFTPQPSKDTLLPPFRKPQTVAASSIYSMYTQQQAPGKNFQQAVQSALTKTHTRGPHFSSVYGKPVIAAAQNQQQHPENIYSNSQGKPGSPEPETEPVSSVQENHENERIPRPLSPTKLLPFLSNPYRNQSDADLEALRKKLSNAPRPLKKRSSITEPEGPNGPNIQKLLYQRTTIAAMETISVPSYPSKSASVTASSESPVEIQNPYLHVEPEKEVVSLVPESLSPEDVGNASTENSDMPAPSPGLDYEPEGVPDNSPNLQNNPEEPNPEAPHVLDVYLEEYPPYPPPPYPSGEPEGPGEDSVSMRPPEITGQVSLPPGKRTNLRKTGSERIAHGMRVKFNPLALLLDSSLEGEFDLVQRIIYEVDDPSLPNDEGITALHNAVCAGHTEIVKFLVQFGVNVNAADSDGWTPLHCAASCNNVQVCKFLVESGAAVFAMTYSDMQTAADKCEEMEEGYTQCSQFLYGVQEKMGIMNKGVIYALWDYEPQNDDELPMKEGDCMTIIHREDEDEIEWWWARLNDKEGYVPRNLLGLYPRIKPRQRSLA
UniProt Q14692: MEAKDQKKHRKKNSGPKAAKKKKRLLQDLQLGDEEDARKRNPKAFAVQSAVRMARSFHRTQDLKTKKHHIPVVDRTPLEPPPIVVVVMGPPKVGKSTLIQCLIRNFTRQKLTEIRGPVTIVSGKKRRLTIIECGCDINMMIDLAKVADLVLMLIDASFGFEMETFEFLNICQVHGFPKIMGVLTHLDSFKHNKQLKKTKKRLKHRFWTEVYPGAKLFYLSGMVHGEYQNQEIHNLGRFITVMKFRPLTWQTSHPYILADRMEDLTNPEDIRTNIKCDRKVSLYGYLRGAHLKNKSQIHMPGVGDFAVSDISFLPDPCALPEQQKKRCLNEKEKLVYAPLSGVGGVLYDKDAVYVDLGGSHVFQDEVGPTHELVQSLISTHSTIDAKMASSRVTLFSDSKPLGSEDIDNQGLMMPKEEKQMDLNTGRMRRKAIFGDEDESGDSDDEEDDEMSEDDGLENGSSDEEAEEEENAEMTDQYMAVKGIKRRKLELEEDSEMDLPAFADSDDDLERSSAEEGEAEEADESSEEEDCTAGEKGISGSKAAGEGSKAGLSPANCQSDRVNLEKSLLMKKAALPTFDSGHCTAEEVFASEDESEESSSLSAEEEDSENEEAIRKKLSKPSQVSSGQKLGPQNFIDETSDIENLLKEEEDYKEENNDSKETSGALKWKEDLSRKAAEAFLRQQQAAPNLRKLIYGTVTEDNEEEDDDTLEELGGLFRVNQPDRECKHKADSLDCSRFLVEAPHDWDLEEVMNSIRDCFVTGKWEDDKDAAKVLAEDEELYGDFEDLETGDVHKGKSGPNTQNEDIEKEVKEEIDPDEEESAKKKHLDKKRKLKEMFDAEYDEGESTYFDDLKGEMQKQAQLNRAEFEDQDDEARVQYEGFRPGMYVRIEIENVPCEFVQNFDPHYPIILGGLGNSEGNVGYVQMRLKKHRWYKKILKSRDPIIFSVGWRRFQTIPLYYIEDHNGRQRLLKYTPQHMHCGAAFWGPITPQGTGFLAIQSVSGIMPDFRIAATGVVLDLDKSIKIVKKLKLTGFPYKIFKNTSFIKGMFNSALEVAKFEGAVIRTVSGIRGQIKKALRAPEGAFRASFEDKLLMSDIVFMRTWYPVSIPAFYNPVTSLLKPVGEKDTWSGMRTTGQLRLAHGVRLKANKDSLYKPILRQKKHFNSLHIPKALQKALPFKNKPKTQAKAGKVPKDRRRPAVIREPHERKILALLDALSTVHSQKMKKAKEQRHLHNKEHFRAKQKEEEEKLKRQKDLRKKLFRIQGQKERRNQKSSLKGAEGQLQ
UniProt Q14684: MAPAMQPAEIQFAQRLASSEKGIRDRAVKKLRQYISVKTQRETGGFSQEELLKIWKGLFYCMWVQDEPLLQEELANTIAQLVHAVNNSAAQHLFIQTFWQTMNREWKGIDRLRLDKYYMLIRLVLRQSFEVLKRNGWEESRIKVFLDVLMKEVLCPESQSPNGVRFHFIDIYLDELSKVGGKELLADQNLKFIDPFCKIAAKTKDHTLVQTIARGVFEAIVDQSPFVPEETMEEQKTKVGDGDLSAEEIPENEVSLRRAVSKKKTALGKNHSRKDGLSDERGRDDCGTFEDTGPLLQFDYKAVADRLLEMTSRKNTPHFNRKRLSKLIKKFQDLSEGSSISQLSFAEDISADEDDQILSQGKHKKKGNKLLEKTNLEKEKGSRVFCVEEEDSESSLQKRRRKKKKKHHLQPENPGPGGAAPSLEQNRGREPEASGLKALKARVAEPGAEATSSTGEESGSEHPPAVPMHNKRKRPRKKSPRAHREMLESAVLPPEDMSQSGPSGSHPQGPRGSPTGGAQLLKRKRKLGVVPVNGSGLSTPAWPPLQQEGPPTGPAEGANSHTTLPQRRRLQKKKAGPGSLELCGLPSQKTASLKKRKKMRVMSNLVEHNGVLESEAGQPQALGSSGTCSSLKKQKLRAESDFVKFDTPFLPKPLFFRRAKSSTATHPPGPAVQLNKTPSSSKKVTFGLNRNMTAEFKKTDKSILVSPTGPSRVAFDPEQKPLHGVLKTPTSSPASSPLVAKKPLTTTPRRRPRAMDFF
UniProt Q13190: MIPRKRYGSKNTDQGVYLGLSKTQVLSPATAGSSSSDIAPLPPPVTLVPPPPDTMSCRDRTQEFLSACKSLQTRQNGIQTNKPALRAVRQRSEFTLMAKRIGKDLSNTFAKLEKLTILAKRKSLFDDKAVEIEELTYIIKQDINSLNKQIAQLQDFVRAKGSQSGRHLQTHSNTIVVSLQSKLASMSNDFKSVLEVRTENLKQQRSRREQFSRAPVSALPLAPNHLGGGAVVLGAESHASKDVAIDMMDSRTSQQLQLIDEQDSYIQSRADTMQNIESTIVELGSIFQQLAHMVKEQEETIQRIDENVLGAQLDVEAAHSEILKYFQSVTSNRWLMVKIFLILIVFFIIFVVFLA
UniProt Q13541: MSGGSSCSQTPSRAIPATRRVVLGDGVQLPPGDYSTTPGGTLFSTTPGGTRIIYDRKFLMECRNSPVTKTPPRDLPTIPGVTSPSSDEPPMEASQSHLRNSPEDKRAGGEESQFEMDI
UniProt Q15118, whole entry, looked up: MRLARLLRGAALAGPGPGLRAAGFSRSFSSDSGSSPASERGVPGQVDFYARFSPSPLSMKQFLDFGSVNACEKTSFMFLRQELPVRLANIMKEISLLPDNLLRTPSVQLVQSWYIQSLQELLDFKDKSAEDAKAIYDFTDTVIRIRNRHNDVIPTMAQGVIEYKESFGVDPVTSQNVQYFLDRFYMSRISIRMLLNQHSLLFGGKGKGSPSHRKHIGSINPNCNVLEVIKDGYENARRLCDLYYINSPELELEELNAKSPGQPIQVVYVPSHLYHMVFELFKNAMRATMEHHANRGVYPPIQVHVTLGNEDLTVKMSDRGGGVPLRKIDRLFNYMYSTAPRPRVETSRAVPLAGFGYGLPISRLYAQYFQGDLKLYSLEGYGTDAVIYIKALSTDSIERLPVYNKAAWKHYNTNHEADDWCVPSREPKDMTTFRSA
UniProt Q14149: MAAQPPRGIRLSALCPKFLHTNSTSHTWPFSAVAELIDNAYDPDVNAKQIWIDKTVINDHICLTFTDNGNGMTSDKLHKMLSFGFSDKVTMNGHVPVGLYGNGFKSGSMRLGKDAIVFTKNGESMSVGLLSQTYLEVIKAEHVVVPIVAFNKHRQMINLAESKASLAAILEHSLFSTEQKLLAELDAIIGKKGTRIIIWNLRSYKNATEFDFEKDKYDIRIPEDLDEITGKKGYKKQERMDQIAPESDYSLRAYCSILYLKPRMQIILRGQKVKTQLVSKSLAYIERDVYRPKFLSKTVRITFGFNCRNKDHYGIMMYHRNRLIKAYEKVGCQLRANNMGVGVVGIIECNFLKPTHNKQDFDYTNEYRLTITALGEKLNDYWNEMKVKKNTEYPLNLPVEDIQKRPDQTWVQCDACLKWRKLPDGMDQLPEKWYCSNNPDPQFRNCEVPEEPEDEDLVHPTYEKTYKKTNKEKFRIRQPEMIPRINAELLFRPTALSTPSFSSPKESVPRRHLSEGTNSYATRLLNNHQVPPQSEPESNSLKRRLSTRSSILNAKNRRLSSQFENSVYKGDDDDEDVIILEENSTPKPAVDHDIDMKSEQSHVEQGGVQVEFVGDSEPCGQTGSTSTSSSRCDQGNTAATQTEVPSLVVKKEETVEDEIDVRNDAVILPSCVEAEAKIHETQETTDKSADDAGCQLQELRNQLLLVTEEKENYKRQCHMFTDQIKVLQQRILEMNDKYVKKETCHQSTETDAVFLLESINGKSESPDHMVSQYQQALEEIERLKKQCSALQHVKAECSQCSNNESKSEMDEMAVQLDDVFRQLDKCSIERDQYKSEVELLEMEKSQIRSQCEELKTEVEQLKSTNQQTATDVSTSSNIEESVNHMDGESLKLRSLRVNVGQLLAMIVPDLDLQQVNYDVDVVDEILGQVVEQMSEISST
UniProt Q13433: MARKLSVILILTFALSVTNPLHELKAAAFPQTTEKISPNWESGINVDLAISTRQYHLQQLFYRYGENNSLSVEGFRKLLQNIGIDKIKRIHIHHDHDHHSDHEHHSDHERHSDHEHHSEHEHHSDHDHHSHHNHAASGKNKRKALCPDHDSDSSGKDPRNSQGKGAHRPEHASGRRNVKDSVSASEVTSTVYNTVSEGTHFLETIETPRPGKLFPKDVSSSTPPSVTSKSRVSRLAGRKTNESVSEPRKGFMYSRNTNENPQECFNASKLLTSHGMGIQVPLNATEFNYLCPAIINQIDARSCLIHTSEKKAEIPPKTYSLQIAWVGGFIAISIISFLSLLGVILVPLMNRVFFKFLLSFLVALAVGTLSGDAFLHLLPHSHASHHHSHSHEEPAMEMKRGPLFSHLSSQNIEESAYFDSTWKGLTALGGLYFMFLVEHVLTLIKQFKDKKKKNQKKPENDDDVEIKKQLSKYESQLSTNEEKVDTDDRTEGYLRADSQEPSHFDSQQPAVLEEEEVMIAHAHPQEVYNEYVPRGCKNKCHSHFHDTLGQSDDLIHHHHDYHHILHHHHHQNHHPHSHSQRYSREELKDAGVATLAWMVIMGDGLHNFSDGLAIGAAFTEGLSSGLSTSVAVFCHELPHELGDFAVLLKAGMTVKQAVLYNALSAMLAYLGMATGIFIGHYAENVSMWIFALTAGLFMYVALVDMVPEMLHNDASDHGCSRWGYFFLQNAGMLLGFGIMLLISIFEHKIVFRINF
UniProt Q12974: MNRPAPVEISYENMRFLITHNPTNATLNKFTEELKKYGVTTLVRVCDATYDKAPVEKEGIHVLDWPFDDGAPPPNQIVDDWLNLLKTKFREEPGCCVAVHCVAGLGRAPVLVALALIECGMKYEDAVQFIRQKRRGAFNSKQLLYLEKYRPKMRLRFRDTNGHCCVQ
UniProt Q14847: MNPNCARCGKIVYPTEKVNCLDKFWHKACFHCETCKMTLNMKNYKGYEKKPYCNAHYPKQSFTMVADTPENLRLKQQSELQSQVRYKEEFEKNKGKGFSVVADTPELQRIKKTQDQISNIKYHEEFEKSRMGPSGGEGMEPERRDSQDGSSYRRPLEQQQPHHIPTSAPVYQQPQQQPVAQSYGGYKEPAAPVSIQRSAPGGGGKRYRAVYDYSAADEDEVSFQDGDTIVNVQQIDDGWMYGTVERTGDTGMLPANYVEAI
UniProt Q13011: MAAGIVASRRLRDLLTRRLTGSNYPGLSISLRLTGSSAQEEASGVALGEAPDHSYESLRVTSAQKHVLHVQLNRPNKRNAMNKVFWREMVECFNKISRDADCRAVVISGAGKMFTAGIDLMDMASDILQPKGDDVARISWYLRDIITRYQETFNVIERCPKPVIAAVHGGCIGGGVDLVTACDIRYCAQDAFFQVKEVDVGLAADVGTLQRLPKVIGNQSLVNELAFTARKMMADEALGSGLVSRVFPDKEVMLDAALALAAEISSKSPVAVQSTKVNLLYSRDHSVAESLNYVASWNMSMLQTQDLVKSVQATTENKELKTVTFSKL

Compound in the test: Nc1ncnc2c1ncn2[C@@H]1O[C@H](COP(=O)(O)OP(=O)(O)NP(=O)(O)O)[C@@H](O)[C@H]1O [adenylyl imidodiphosphate]
The test is described as follows: NP40-soluble protein abundance relative to vehicle (solubility fold change) (ratio); higher = more soluble protein in presence of AMP-PNP. The method in brief: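 Values are fold changes against the detergent-processed vehicle, based on vsn-normalised intensities. Jurkat crude lysate was treated at eight concentrations from 0.1 to 10 mM (10 min at room temperature, then 3 min at 37 °C), solubilised with 0.8% NP40 and benzonase, ultracentrifuged and analysed by TMT-labelled LC-MS/MS over three independent experiments.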

± gives the standard deviation of the averaged measurements. The list shows a part of the results, in another mix than the full data.

For the target UniProt Q13625 and related entries, the NP40-soluble protein abundance reads like this: (concentration: 1mM) 1 ± 0.037; (concentration: 2mM) 1.04 ± 0.038; (concentration: 4mM) 1.02 ± 0.052; (concentration: 6mM) 1.01 ± 0.051; (concentration: 8mM) 0.958 ± 0.017; (concentration: 10mM) 1.02 ± 0.046.
In the case of BMS1 (UniProt Q14692), the NP40-soluble protein abundance is, setting by setting: (concentration: 1mM) 1.04 ± 0.024; (concentration: 2mM) 1.1 ± 0.055; (concentration: 4mM) 1.06 ± 0.024; (concentration: 6mM) 1.08 ± 0.022; (concentration: 8mM) 1.04 ± 0.019; (concentration: 10mM) 1.06 ± 0.035.
For the target ROCK1 (UniProt Q13464), the NP40-soluble protein abundance by setting is: (concentration: 1mM) 1.03 ± 0.03; (concentration: 2mM) 1.07 ± 0.05; (concentration: 4mM) 1.01 ± 0.028; (concentration: 6mM) 0.992 ± 0.042; (concentration: 8mM) 0.961 ± 0.022; (concentration: 10mM) 1 ± 0.045.
As to UniProt Q14684 and related entries, the NP40-soluble protein abundance is 1.06 ± 0.029 (concentration: 1mM); 1.09 ± 0.06 (concentration: 2mM); 1.09 ± 0.038 (concentration: 4mM); 1.08 ± 0.037 (concentration: 6mM); 1.1 ± 0.039 (concentration: 8mM); 1.12 ± 0.059 (concentration: 10mM).
For the target UniProt Q13190 and related entries, the NP40-soluble protein abundance reads like this: (concentration: 1mM) 0.976 ± 0.022; (concentration: 2mM) 0.98 ± 0.044; (concentration: 4mM) 0.998 ± 0.017; (concentration: 6mM) 1 ± 0.074; (concentration: 8mM) 1.02 ± 0.057; (concentration: 10mM) 1.05 ± 0.057.
On to EIF4EBP1 (UniProt Q13541), for which the NP40-soluble protein abundance (concentration: 1mM) is 0.949 ± 0.016; the NP40-soluble protein abundance (concentration: 2mM) was 1.032 ± 0.008; the NP40-soluble protein abundance (concentration: 4mM) is 0.998 ± 0.1; the NP40-soluble protein abundance (concentration: 6mM) came out at 0.9563 ± 0.0018; the NP40-soluble protein abundance (concentration: 8mM) amounted to 0.961 ± 0.059; the NP40-soluble protein abundance (concentration: 10mM) is 0.96 ± 0.047.
For MGAT5 (UniProt Q09328), the NP40-soluble protein abundance reads like this: (concentration: 1mM) 0.991 ± 0.024; (concentration: 2mM) 1.01 ± 0.018; (concentration: 4mM) 1.02 ± 0.066; (concentration: 6mM) 0.982 ± 0.025; (concentration: 8mM) 0.953 ± 0.036; (concentration: 10mM) 1.01 ± 0.041.
Turning to UniProt Q15118 and related entries, the NP40-soluble protein abundance was determined as 1.004 ± 0.002 (concentration: 1mM); 1.01 ± 0.028 (concentration: 2mM); 1.02 ± 0.0094 (concentration: 4mM); 1 ± 0.021 (concentration: 6mM); 1.02 ± 0.016 (concentration: 8mM); 0.994 ± 0.013 (concentration: 10mM).
Take MORC3 (UniProt Q14149): the NP40-soluble protein abundance by setting is: (concentration: 1mM) 1.04 ± 0.031; (concentration: 2mM) 1.04 ± 0.013; (concentration: 4mM) 1.02 ± 0.018; (concentration: 6mM) 0.997 ± 0.035; (concentration: 8mM) 0.985 ± 0.024; (concentration: 10mM) 0.972 ± 0.029.
In the case of DPYD (UniProt Q12882), the NP40-soluble protein abundance (concentration: 1mM) worked out at 0.9983 ± 0.0072; the NP40-soluble protein abundance (concentration: 2mM) came to 0.973 ± 0.033; the NP40-soluble protein abundance (concentration: 4mM) worked out at 0.992 ± 0.013; the NP40-soluble protein abundance (concentration: 6mM) is 0.965 ± 0.011; the NP40-soluble protein abundance (concentration: 8mM) turned out to be 0.976 ± 0.03; the NP40-soluble protein abundance (concentration: 10mM) amounted to 0.954 ± 0.016.
UniProt Q14139 and related entries: the NP40-soluble protein abundance reads like this: (concentration: 1mM) 0.974 ± 0.022; (concentration: 2mM) 0.96 ± 0.013; (concentration: 4mM) 0.977 ± 0.016; (concentration: 6mM) 0.977 ± 0.04; (concentration: 8mM) 0.97 ± 0.049; (concentration: 10mM) 0.948 ± 0.021.
For the target SLC39A6 (UniProt Q13433), the NP40-soluble protein abundance (concentration: 1mM) came to 1.04 ± 0.04; the NP40-soluble protein abundance (concentration: 2mM) came to 1.07 ± 0.082; the NP40-soluble protein abundance (concentration: 4mM) was 1.02 ± 0.07; the NP40-soluble protein abundance (concentration: 6mM) was determined as 1.04 ± 0.048; the NP40-soluble protein abundance (concentration: 8mM) was found to be 1.03 ± 0.071; the NP40-soluble protein abundance (concentration: 10mM) turned out to be 1.02 ± 0.043.
As for UniProt Q12974 and related entries, the NP40-soluble protein abundance (concentration: 1mM) was found to be 1.04 ± 0.032; the NP40-soluble protein abundance (concentration: 2mM) was 1.022 ± 0.0039; the NP40-soluble protein abundance (concentration: 4mM) came out at 0.956 ± 0.027; the NP40-soluble protein abundance (concentration: 6mM) turned out to be 0.996 ± 0.025; the NP40-soluble protein abundance (concentration: 8mM) worked out at 1.02 ± 0.029; the NP40-soluble protein abundance (concentration: 10mM) stood at 0.988 ± 0.02.
In the case of LASP1 (UniProt Q14847), the NP40-soluble protein abundance reads like this: (concentration: 1mM) 1.033 ± 0.0059; (concentration: 2mM) 1.05 ± 0.078; (concentration: 4mM) 1.01 ± 0.03; (concentration: 6mM) 1.06 ± 0.035; (concentration: 8mM) 1.05 ± 0.058; (concentration: 10mM) 1.05 ± 0.057.
With ECH1 (UniProt Q13011), the NP40-soluble protein abundance (concentration: 1mM) came to 0.93 ± 0.02; the NP40-soluble protein abundance (concentration: 2mM) was 0.871 ± 0.062; the NP40-soluble protein abundance (concentration: 4mM) came out at 0.879 ± 0.022; the NP40-soluble protein abundance (concentration: 6mM) amounted to 0.952 ± 0.03; the NP40-soluble protein abundance (concentration: 8mM) was 0.942 ± 0.011; the NP40-soluble protein abundance (concentration: 10mM) came to 0.908 ± 0.022.
UniProt Q14103-3|Q14103-4|D6RF44: the NP40-soluble protein abundance by setting is: (concentration: 1mM) 1 ± 0.068; (concentration: 2mM) 1.03 ± 0.053; (concentration: 4mM) 0.998 ± 0.028; (concentration: 6mM) 1.07 ± 0.027; (concentration: 8mM) 1.06 ± 0.029; (concentration: 10mM) 1.09 ± 0.042.
As for CUL4A (UniProt Q13619), the NP40-soluble protein abundance by setting is: (concentration: 1mM) 0.963 ± 0.022; (concentration: 2mM) 0.938 ± 0.052; (concentration: 4mM) 0.995 ± 0.037; (concentration: 6mM) 1.02 ± 0.047; (concentration: 8mM) 1.04 ± 0.027; (concentration: 10mM) 1.03 ± 0.047.
